The source of these data is US20140363406A1, “ESTROGEN METABOLITE LEVELS AND CYP1B1 POLYMORPHISMS IN LUNG CANCER DIAGNOSIS, PROGNOSIS, AND RISK ASSESSMENT” (Institute for Cancer Research d/b/a The Research Institute …, priority 2012, published 2014).

The nature of this data set: LC-MS2 levels of estrogen and its metabolites in perfused lungs of wild-type 129SvJ mice. Format: in vivo, mouse. The conditions noted are these: for level in lungs of female mice compared with male mice: higher in females; for level in female lung versus male lung (in words): absolute level.

For `C[C@]12CC[C@@H]3c4ccc(O)cc4CC[C@H]3[C@@H]1C[C@@H](O)[C@@H]2O` [E3, estriol], the “concentration in the lungs” value (endogenous level, perfused lungs of both male and female wild-type 129SvJ mice) is on record as about 1 pg/g. For `C[C@]12CC[C@@H]3c4ccc(O)c(O)c4CC[C@H]3[C@@H]1CCC2=O` [4-OHE1, 4-hydroxyestrone], the “level within the lungs” value is, setting by setting: (endogenous level, female wild-type 129SvJ mice) 7.26 pg/g; (endogenous level, male wild-type 129SvJ mice) 3.26 pg/g. Moreover, where the note is “wild-type 129SvJ mice”, the “level in lungs of female mice compared with male mice” value came to 2 fold. Take `COc1cc2c(cc1O)CC[C@@H]1[C@@H]2CC[C@]2(C)C(=O)CC[C@@H]12` [2-OMeE1, 2-methoxyestrone]: the “level in female lung versus male lung (in words)” value (wild-type 129SvJ mice) is listed as “higher in female lungs”. For `COc1cc2c(cc1O)CC[C@@H]1[C@@H]2CC[C@]2(C)[C@@H](O)CC[C@@H]12` [2-OMeE2, 2-methoxyestradiol], under “wild-type 129SvJ mice”, the “level in female lung versus male lung (in words)” value is reported as “higher in female lungs”.

`C[C@]12CC[C@@H]3c4cc(O)c(O)cc4CC[C@H]3[C@@H]1CCC2=O` [2-OHE1, 2-hydroxyestrone]: for the setting “wild-type 129SvJ mice”, the “concentration as percentage of total estrogen, between genders (in words)” value was “neither 2-OHE1 nor 2-OMeEs varied significantly” and the “level in female lung versus male lung (in words)” value was “comparable in both genders”.

Take `C[C@]12CC[C@@H]3c4ccc(O)c(O)c4CC[C@H]3[C@@H]1CC[C@@H]2O` [4-OHE2, 4-hydroxyestradiol]: the “level in lungs of female mice compared with male mice” value (wild-type 129SvJ mice) is listed as 2 fold.
